Data as given in publication PMC12102401.
These are yes or no findings as the source states them, for the method shown. Binding seen in cells or lysates may run through a third protein. Some results given as binding are weak or reduced against the parent protein; the word gives no strength.

Amino acid sequences for entries named in this document (tags omitted).
UniProt Q91YL2: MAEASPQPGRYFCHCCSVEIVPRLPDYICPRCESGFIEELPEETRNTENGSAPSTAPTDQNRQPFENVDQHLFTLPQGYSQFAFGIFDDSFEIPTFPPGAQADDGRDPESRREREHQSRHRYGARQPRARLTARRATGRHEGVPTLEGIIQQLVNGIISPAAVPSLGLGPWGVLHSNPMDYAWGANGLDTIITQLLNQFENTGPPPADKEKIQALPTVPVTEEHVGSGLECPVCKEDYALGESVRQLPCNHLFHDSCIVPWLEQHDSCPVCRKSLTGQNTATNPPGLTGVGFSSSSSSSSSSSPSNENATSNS
UniProt Q9Z1R2: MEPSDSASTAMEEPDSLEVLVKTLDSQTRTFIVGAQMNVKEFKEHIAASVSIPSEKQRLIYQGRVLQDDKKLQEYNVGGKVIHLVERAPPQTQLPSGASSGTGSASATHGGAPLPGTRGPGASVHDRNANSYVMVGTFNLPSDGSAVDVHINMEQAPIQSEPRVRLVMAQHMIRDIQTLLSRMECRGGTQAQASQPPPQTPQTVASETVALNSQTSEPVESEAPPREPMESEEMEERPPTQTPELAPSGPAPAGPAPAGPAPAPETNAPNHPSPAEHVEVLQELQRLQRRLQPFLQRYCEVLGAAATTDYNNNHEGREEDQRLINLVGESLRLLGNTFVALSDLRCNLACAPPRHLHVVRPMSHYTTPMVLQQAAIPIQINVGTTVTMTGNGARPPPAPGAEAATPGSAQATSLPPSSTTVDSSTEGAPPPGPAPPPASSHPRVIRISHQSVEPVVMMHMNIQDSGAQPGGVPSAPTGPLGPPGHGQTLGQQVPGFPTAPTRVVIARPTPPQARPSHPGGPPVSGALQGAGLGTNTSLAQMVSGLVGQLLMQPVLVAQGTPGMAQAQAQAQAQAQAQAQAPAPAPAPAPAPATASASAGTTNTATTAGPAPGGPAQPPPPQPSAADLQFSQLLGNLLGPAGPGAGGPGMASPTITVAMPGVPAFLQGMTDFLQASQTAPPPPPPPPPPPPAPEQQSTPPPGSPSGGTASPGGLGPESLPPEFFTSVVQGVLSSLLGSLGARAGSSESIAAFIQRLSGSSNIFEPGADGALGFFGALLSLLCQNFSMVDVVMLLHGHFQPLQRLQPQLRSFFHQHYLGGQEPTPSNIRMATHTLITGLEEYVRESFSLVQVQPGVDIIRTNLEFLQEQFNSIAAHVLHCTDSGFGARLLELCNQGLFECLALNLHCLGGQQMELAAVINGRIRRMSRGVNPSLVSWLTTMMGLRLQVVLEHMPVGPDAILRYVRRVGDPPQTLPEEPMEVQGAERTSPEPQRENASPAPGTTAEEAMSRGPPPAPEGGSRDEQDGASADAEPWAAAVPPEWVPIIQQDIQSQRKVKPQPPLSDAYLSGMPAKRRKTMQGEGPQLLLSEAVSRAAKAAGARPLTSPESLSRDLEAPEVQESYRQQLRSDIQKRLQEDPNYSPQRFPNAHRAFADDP

Target: RNF126 (mouse (endogenous in testis)) (UniProt Q91YL2)
Assay: co-IP; RNF126-specific antibody on protein A/G magnetic beads, Rnf126+/+ mouse testis lysate (25 mM Tris, 150 mM NaCl, 1 mM EDTA, 1% NP40, pH 7.4), 4 °C overnight; IgG and Rnf126-/- testis lysate as controls; Western blot

binding: binds
Substance: BAG6 (from UniProt Q9Z1R2 1-1154)
